# Some of these results come from one statement about several compounds together.
# System: osteoblast differentiation of mouse bone marrow cells
# Test: Differentiation of osteoblast: ALP-positive osteoblast nodules in mouse bone marrow cell culture
# Assay type: cell-based
# Conditions: ratio to control, 6 days of culture, FIG. 1
smiles,measurement,value
"O=C1CC(c2ccc(O)c(O)c2)Oc2cc(OC3OC(CO)C(O)C(O)C3O)ccc21 [F2, 3′,4′,7-trihydroxyflavanone 7-O-β-D-glucopyranoside]",final concentration at which a concentration-dependent differentiation accelerating action on osteoblast was found,not less than 2.5 μM
